# Out of some 580,000 compounds screened, about 6,100 (1.1%) were called active. The inconclusive results got no clear call from the source; some entries with a clear call stand among them for comparison. Calls come from the whole dose curve; as a rule, active = well fitted inhibition curve with a large enough effect; inconclusive = small, poorly fitted or top-dose-only effect, or another doubt; inactive = no such curve, though single readings can be large or run the other way. A potency beside an inconclusive call is a rough fit, not a confirmed value.
# By UniProt entry, the sequences of proteins in these tests, tags left out. Where a name states a change or a piece, a line headed by the entry shows the natural chain unless it says otherwise.
# UniProt P18054: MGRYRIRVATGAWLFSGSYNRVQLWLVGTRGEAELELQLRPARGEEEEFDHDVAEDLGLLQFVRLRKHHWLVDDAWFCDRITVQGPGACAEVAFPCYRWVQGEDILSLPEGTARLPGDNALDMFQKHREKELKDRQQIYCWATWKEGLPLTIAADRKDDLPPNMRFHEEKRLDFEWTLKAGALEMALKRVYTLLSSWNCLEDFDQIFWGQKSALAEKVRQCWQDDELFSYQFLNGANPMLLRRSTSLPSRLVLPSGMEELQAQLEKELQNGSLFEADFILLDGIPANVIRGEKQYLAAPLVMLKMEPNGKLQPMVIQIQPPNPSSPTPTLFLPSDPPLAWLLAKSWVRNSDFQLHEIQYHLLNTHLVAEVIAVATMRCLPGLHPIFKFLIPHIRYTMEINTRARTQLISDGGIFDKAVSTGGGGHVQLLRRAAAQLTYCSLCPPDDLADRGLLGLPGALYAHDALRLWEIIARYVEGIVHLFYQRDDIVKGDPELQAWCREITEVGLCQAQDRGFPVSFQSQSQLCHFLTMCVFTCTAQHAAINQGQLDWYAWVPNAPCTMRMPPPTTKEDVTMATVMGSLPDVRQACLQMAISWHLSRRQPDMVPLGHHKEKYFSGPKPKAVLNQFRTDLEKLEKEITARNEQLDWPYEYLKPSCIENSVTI
# Molecular target: Polyunsaturated fatty acid lipoxygenase ALOX12 (Homo sapiens) (UniProt P18054)
# Assay: Primary qHTS assay for inhibitors of human arachidonate 12S-lipoxygenase (ALOX12): Round 2
# Details: purified 12hLO, xylenol orange hydroperoxide absorbance; activity change, negative = inhibition: at 108 µM (top of the series) unless noted
# Method in brief: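 Purified human 12hLO at 150 nM in 25 mM Hepes, 0.01% Triton X-100, pH 7.0, preincubated 15 min at room temperature with compound. Reaction started with 40 uM arachidonic acid, 30 min at room temperature. Hydroperoxide measured by Fe-xylenol orange, 573/405 nm absorbance ratio.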
# % is set by controls: 0 for no effect and ±100 for the full control effect; potency is the fitted concentration of half-maximal effect.
SMILES,"activity change, negative = inhibition",Potency
Cc1cc(OCC(=O)OCC(=O)Nc2cccnc2Cl)ccc1Cl,inactive: 1.62%,–
CN(C)c1ccc2nnc(-c3cc(C(=O)NCCc4ccccn4)ccn3)n2n1,–,"inconclusive: 6.31 µM [inhibitor, full curve, poor fit]"
COc1c(CC2CC(c3ccc(F)cc3)=NO2)cc2c(c1OC)OCO2 (stereo unspecified),inactive: 1.7%,–
COc1ccccc1-c1cc(-c2ccc(=O)[nH]c2)c2cncn2c1,–,active: 22.4 µM
COc1ccc(Cl)cc1NC(=S)N(Cc1ccccc1C)CC1CCC(C(=O)O)CC1 (stereo unspecified),–,"inconclusive: 50.1 µM [inhibitor, partial curve, poor fit]"
C=CCOc1cccc(C2/C(=C(\O)c3ccc4c(c3)OCCO4)C(=O)C(=O)N2CCN2CCOCC2)c1 (stereo unspecified),–,"inconclusive: 11.2 µM [inhibitor, full curve, poor fit]"
CN(Cc1ccccc1OCCO)CC1CCCN(CCc2ccc(Cl)cc2)C1 (stereo unspecified),–,"inconclusive: 50.1 µM [inhibitor, partial curve, poor fit]"
COc1ccc(NC(=S)N2CCCN(Cc3cccc(Cl)c3)C2)cc1,–,"inconclusive: 112 µM [inhibitor, single point]"
CCOc1ccccc1NS(=O)(=O)c1cc2c3c(c1)C(C)C(=O)N3CCC2 (stereo unspecified),–,"inconclusive: 100 µM [inhibitor, single point]"
CN(C)C(=O)C1CN(C(=O)c2nn(Cc3ccccc3)c(=O)c3ccccc23)c2ccccc2O1 (stereo unspecified),inactive: 5.73%,–
Cc1ccc(C)c(N2CCN(C(=O)CCc3nc(-c4cccc(Br)c4)no3)CC2)c1,–,"inconclusive: 126 µM [inhibitor, single point]"
CCOC(=O)c1ccc(NC(=O)c2sc3nc(-c4ccncc4)ccc3c2N)cc1,–,"inconclusive: 4.47 µM [inhibitor, full curve, poor fit]"
COc1ccc(S(=O)(=O)Nc2ccc(Nc3nc(C)cc(N(C)C)n3)cc2)cc1C,–,"inconclusive: 79.4 µM [inhibitor, partial curve, poor fit]"
O=C1CCN(S(=O)(=O)c2ccccc2)CCCN(C(=O)CCC2CCCC2)CCN1,–,"inconclusive: 25.1 µM [inhibitor, partial curve]"
CC1CCc2c(sc(N)c2C(=O)OC(C)C)C1 (stereo unspecified),–,"inconclusive: 112 µM [inhibitor, single point]"
Cc1cccc(N=C2NC(=O)S/C2=C\c2ccco2)c1,–,"inconclusive: 44.7 µM [inhibitor, partial curve]"
COc1ccc(NC(=O)c2ncoc2-c2ccco2)cc1Cl,–,"inconclusive: 0.631 µM [inhibitor, full curve, poor fit]"
CC(C)CCN1CCCC(c2nn(-c3ccccc3)c(=O)[nH]2)C1 (stereo unspecified),–,"inconclusive: 35.5 µM [inhibitor, partial curve]"
COc1cc(-c2nc(-c3ccc4c(c3)-c3ccccc3S4(=O)=O)c(-c3ccccc3)[nH]2)cc(OC)c1OC,–,"inconclusive: 39.8 µM [inhibitor, single point]"
CCC1Nc2ncnc(N3CCCCC3)c2N(Cc2ccc(Cl)cc2)C1=O (stereo unspecified),–,"inconclusive: 35.5 µM [inhibitor, partial curve]"
CCC(=O)Oc1ccc2c(=O)c(-c3ccccc3)coc2c1,–,"inconclusive: 112 µM [inhibitor, single point]"
CC(=O)Nc1ccc2nc(CN3CCN(CC(C)C)C(CCO)C3)ccc2c1 (stereo unspecified),–,"inconclusive: 10 µM [inhibitor, full curve, poor fit]"

SMILES,"activity change, negative = inhibition",Potency
COc1cc2nc(-c3cc(F)ccc3O)nc(N[C@@H]3CNC[C@@H]3C(C)(C)O)c2cc1OC,–,active: 2.43 µM
COc1ccc(N2CCN(C(=O)CCc3ccc(S(=O)(=O)NCC(C)C)cc3)CC2)cc1,–,"inconclusive: 44.7 µM [inhibitor, partial curve, poor fit]"
CCOc1ccc(CNC(=S)N/N=C/c2ccc(OC)c(OC)c2)cc1,–,active: 14.1 µM
COc1ccc(OC)c(-c2nnc3n(CCc4ccccc4)c(=O)c4ccccc4n23)c1,–,"inconclusive: 56.2 µM [inhibitor, partial curve, poor fit]"
CC(OC(=O)C1CC2CCCC(C1)C2=O)C(=O)Nc1cccc([N+](=O)[O-])c1 (stereo unspecified),–,"inconclusive: 112 µM [inhibitor, single point]"
O=C(O)CCc1ccc(-c2ccccc2)o1,–,"inconclusive: 31.6 µM [inhibitor, partial curve, poor fit]"
O=C(Nc1cccc(C(=O)N2CCCC2)c1)C1CCCC1,inactive: 101%,–
Cn1nc(CC(=O)NC2CCCCCC2)c2ccccc2c1=O,inactive: 21.6%,–
COc1cccc(N2CCN(c3nc(C(=O)NCc4ccco4)cs3)CC2)c1,inactive: 19.9%,–
Cc1ccc(C(CNC(=O)c2cc(=O)c3cc(Br)ccc3o2)N2CCC(C)CC2)o1 (stereo unspecified),–,"inconclusive: 44.7 µM [inhibitor, single point]"
O=C(OCC(=O)N1CCN(c2ccccc2)CC1)c1cc(Cl)ccc1[N+](=O)[O-],–,"inconclusive: 31.6 µM [inhibitor, partial curve, poor fit]"
Cc1ccc(CN2CCc3nc(N4CCN(c5ccccc5F)CC4)ncc3C2)s1,–,"inconclusive: 126 µM [inhibitor, partial curve, poor fit]"
CCc1nc(N2CCN(CCO)CC2)c(C#N)c2c1CCCC2,inactive: 0.964%,–
Cc1c(Cl)cccc1NC(=S)NCC(O)c1ccccc1 (stereo unspecified),–,"inconclusive: 44.7 µM [inhibitor, partial curve, poor fit]"
C/C(=N\NC(=O)c1ccc(N)cc1)C1CC1,inactive: 3.42%,–
CCOc1ccc(NC(=S)N2CCCN(Cc3cc(C)ccc3C)C2)cc1,–,"inconclusive: 44.7 µM [inhibitor, partial curve, poor fit]"
Cc1ccc2cccc(NC(=S)NC(=O)c3ccccc3)c2n1,–,"inconclusive: 126 µM [inhibitor, single point]"
CCSc1nc2c(c(=O)[nH]c(=O)n2C)n1C/C=C(/C)Cl,inactive: 17.2%,–
CCOC(=O)c1sc2nc(-c3ccccc3)ccc2c1N,inactive: 0.317%,–
CCS(=O)(=O)N1CCC(N2CCC(C)CC2)CC1,–,"inconclusive: 0.447 µM [inhibitor, full curve, poor fit]"
CCOC(=O)COc1nc(-c2ccccc2)cc(-c2ccco2)c1C#N,–,"inconclusive: 3.55 µM [inhibitor, full curve, poor fit]"
Cn1nnnc1SCC(=O)N1CCN(c2ccccc2)CC1,–,"inconclusive: 1.41 µM [inhibitor, full curve, poor fit]"

# 2 of these compounds, set out differently.
SMILES	activity change, negative = inhibition	Potency
COc1ccc(NC(=S)N2CCCN(Cc3cccc(Cl)c3)C2)cc1	–	inconclusive: 112 µM [inhibitor, single point]
CCC1Nc2ncnc(N3CCCCC3)c2N(Cc2ccc(Cl)cc2)C1=O (stereo unspecified)	–	inconclusive: 35.5 µM [inhibitor, partial curve]

# Entries from the list above containing bromine:
SMILES,"activity change, negative = inhibition",Potency
Cc1ccc(C)c(N2CCN(C(=O)CCc3nc(-c4cccc(Br)c4)no3)CC2)c1,–,"inconclusive: 126 µM [inhibitor, single point]"
Cc1ccc(C(CNC(=O)c2cc(=O)c3cc(Br)ccc3o2)N2CCC(C)CC2)o1 (stereo unspecified),–,"inconclusive: 44.7 µM [inhibitor, single point]"

# More records

SMILES,"activity change, negative = inhibition",Potency
COc1ccc(-c2noc(CN3CCCC(OCc4ccccn4)C3)n2)cc1 (stereo unspecified),–,"inconclusive: 35.5 µM [inhibitor, single point]"
CCC(C)N1C(=O)S/C(=C/c2ccc3c(c2)n(C)c(=O)n3C)C1=O (stereo unspecified),inactive: -5.53%,–
O=C(NC1CCCC1)C(c1ccc(O)cc1)N(CC1CCCO1)C(=O)C1COc2ccccc2O1 (stereo unspecified),inactive: -22.6%,–
CCOc1ccc(NC(=S)NCCCc2ccccc2)cc1,–,"inconclusive: 44.7 µM [inhibitor, partial curve, poor fit]"
Cc1cc(=O)n(CC(=O)Nc2ccc(Br)cc2)c(N(C)Cc2ccccc2)n1,–,"inconclusive: 28.2 µM [inhibitor, partial curve, poor fit]"
O=C(c1cccc(S(=O)(=O)N2CCc3ccccc32)c1)N1CCc2ccccc2C1,inactive: 46.3%,–
CC(C)CCn1c(=O)c2ccccc2n2c(=S)[nH]nc12,–,"inconclusive: 44.7 µM [inhibitor, partial curve, poor fit]"
Cc1[nH]c(=O)[nH]c(=O)c1/C=N/NC(=O)[C@H](C)N,inactive: 0%,–
COc1ccc(OC)c(NS(=O)(=O)c2cc3c4c(c2)CCN4C(=O)CC3)c1,–,"inconclusive: 112 µM [inhibitor, single point]"
Cc1cccc(CN2C(=O)NC(c3ccccc3)(c3ccccc3)C2=O)c1,inactive: -4.34%,–
Cc1ccc(CC2SC(=O)NC2=O)cc1Cl (stereo unspecified),–,"inconclusive: 39.8 µM [inhibitor, partial curve, poor fit]"
O=S(=O)(Cc1cccc(F)c1)Cc1csc(-c2ccccc2)n1,–,"inconclusive: 2.82 µM [inhibitor, full curve, poor fit]"
O=C(c1cc(C(F)(F)F)cc(C(F)(F)F)c1)N1CCC2(CCCN(c3ccccn3)C2)CC1,–,"inconclusive: 31.6 µM [inhibitor, single point]"
FC(F)(F)c1cnc(N2CCN(C(=S)NCc3ccccc3)CC2)c(Cl)c1,–,"inconclusive: 44.7 µM [inhibitor, partial curve, poor fit]"
Cc1ccnc(NS(=O)(=O)c2ccc(NC(=O)c3cc(-c4ccccc4)nc4ccccc34)cc2)n1,inactive: -0.619%,–
CCOC(=O)N1CCN(Cc2nc3cc(NC(=O)CC(C)C)ccc3n2CC)CC1,inactive: -48.7%,–
CC(=O)Oc1c(C)cc2sc3ccccc3c(=O)c2c1C,–,"inconclusive: 15.8 µM [inhibitor, partial curve, poor fit]"
c1ccc(OCCCN2CCCC2)cc1,–,"inconclusive: 0.891 µM [inhibitor, full curve, poor fit]"
COc1ccc(NC(=S)Nc2ccccn2)cc1,inactive: 0%,–
O=S(=O)(Cc1coc(-c2ccccc2)n1)CC1CCCO1 (stereo unspecified),–,"inconclusive: 6.31 µM [inhibitor, full curve, poor fit]"
CCCCCCC(=O)N1C/C=C\C(c2ccc(OC)cc2)N(Cc2ccc(F)cc2)C(=O)C1 (stereo unspecified),–,"inconclusive: 89.1 µM [inhibitor, single point]"
CC(=O)CC(C)(C)S(=O)(=O)c1ccc(Cc2ccc(S(=O)(=O)C(C)(C)CC(C)=O)cc2)cc1,–,"inconclusive: 39.8 µM [inhibitor, partial curve, poor fit]"
